Test results published in patent publication US12377176B2, “Cancer diagnostic imaging agents” (Technische Universität München, priority 2019, dated 2025).
Some results were stated once for a whole list of compounds, not compound by compound.

Test: Preclinical dosimetry in SCID mice, extrapolated to 70-kg Standard Adult (OLINDA/EXM 1.0)
Assay type: in vivo
Details: injection of up to 370 MBq (10 mCi), 1h voiding interval
Method: 3-5 mice were injected per timepoint with a mean 25.6±3.6 MBq of 18F-rhPSMA-7 and 28.5±4.8 MBq of 18F-rhPSMA-7.3, respectively. Mice, severe combined immunodeficiency (SCID) were used for the experiments.
Urine, blood, heart, lung, spleen, pancreas, liver, stomach (emptied), small intestine (emptied), large intestine (emptied), kidneys, bladder, testis, fat, muscle (partial, femoral), femur, tail and brain. Urine was collected with a pipette in the CO2 gas chamber. In case of missing urination in the chamber the bladder was aspirated with an insulin syringe. Blood was withdrawn instantly after sacrifice with an insulin syringe from the heart. All other tissues and organs were dissected and transferred directly in plastic containers.
The counting rates of measurement samples were automatically corrected for decay. The radioactivity distribution ratios (unit: percentage of the injected dose (% ID) in the measurement samples were determined using the equation below. The sum of the counting rates from all measurement samples obtained from one mouse was designated as the counting rate for administrated radioactivity. […]
Organ residence time was calculated by numerical integration using the trapezoidal rule and the rest-of-body ^18F residence times was calculated as the difference between the total-body residence time and the sum of the organ and urine residence times. […]

Molecule: CC(C)(C)[Si](F)(c1ccc(C(=O)NC[C@@H](NC(=O)CC[C@@H](C(=O)O)N2CCN(CC(=O)O)CCN(CC(=O)O)CCN(CC(=O)O)CC2)C(=O)N[C@H](CCCCNC(=O)CCC(=O)NCCC[C@@H](NC(=O)CC[C@H](NC(=O)N[C@@H](CCC(=O)O)C(=O)O)C(=O)O)C(=O)O)C(=O)O)cc1)C(C)(C)C [rhPSMA7.3, [^19F][^natGa]D-Dap-S-DOTAGA-rhPSMA7, metal not drawn]
- radiation exposure of a clinical scan: less than 5 mSv

Molecule: [^19F][^natGa]D/L-Dap-R/S-DOTAGA-rhPSMA7 [rhPSMA7-rac]
- radiation exposure of a clinical scan: less than 5 mSv
